From US20260201038A1 (CELLABMED, published 2026)
These are yes or no findings as the source states them, for the method shown. Some binding calls cover weakened binding; strength is not graded here.

What was measured:
[1] = target: T1, B7-H3 on mouse cancer cells (mouse) (UniProt Q8VE98); test: FACS on GL261 cells
T1 sequence: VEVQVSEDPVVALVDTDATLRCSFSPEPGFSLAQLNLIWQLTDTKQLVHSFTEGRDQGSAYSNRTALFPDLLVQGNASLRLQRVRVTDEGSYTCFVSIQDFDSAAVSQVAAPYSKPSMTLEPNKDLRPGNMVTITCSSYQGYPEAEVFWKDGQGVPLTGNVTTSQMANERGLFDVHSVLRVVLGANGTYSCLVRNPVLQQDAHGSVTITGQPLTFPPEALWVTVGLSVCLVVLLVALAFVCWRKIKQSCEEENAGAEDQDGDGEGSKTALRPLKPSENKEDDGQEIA

[2] = target: T1, B7-H3 on mouse cancer cells (mouse); test: FACS on 3LL, 4T1, Panc-02 and GL-261 mouse cancer cells
[3] = target: T1, B7-H3 on mouse cancer cells (mouse); test: flow cytometry on mouse cancer cell lines; control = secondary antibody only

Measured: binding

B1: G2D IgG (antibody, V domains shown)
VH: QVQLVESGGGLVQPGGSLRLSCSASGFDFSSYPMVWVRQAPGKGLEYVSSINSGGSWTGYGAAVKGRATISRDNSKNTLYLQMNSLRAEDTATYYCARAYGAATIDAWGQGTTVTVSS
VL: SYELTQPPSVSVSPGQTARITCSGGSIGYGWYQQKAPGQAPVTVIYYNDRRPSGIPERFSGSKSGTTNTLTISGVQAEDEADYYCGSADSSSTYTGIFGGGTKLTVL
notes: The back-substitutions (L46T, S66K, V71N in VL); also called humanized 2D; G2D antibody
binds: [1] | [2] | [3]
